From publication doi:10.1101/2020.01.28.923136

Chains of the proteins cited; added tags and fusions are not shown. Residues count along the entry.
UniProt P11021, residues 19-654: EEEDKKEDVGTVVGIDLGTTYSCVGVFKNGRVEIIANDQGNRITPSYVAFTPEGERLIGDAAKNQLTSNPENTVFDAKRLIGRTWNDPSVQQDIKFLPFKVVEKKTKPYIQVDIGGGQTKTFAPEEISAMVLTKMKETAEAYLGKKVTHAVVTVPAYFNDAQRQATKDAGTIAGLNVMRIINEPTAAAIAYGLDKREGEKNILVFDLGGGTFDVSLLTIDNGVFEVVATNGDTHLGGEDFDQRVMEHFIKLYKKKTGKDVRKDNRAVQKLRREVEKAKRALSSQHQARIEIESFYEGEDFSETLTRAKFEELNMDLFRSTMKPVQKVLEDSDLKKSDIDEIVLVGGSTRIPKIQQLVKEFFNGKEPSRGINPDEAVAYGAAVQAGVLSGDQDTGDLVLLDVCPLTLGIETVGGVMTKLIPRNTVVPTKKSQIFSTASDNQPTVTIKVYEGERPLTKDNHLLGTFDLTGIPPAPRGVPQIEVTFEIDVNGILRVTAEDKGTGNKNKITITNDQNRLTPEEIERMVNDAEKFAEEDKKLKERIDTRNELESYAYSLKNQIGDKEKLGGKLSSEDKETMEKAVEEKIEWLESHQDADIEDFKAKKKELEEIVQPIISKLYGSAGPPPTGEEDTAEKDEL
UniProt P11142: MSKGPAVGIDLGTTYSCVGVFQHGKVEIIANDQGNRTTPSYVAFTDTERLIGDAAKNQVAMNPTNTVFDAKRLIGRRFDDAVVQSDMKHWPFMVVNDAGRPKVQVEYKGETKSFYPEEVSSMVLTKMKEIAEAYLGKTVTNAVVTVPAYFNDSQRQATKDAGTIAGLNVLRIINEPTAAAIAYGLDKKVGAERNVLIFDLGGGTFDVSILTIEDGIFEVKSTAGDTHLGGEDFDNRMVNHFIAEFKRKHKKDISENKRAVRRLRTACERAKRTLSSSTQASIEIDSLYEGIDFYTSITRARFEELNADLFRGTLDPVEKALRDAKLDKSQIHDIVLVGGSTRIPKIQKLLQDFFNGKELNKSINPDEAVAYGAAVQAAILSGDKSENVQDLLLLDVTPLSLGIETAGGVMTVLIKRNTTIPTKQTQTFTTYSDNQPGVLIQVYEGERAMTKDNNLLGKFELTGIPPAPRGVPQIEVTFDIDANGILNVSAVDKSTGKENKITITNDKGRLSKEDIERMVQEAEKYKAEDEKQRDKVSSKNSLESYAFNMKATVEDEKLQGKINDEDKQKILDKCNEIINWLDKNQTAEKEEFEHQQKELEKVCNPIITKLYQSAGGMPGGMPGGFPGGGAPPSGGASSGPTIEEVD
UniProt Q8NBS9, residues 33-432: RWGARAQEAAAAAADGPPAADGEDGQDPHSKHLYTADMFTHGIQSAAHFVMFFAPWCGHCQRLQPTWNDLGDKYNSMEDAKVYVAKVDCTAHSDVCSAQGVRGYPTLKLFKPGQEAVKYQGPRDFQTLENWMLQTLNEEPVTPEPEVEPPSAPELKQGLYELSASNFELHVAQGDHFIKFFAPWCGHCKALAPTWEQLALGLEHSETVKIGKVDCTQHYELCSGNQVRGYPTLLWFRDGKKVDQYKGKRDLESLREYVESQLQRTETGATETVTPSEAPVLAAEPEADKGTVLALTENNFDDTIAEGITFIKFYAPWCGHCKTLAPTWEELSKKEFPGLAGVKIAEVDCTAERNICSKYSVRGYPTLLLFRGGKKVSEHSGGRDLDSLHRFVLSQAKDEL

How the values were obtained:
[1] = biological target: T1, C-terminally tagged Creld2 (C2-SF), murine (mouse) (UniProt Q9CYA0); experiment: affinity purification with mass spectrometry
T1 sequence: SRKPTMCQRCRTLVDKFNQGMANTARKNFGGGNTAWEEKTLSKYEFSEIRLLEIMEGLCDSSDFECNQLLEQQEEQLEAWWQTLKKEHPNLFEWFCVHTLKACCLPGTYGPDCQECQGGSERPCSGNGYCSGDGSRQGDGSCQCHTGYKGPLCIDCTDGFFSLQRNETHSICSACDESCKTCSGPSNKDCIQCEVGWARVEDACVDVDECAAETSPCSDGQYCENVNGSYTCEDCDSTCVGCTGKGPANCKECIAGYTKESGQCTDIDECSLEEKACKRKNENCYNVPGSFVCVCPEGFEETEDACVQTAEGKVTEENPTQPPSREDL

[2] = biological target: T2, N-terminally tagged Creld2 (FS-C2), murine (mouse) (UniProt Q9CYA0); experiment: affinity purification with mass spectrometry
T2 sequence: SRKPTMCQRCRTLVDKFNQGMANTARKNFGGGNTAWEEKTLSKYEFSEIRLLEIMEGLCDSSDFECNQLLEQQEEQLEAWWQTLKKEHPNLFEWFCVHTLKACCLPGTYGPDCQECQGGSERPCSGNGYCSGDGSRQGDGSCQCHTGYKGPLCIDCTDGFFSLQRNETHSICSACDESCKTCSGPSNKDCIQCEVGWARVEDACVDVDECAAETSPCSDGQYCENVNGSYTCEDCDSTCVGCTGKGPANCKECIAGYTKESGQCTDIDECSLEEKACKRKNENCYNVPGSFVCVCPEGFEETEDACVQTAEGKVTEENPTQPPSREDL

Molecule | binding [1] | binding [2]
HSP90B (human (endogenous in HEK293)) | no binding | no binding
HSPA5 (GRP78) (from UniProt P11021 19-654) | binds | –
HSPA8 (from UniProt P11142 1-646) | no binding | no binding
thioredoxin domain-containing 5 (TXNDC5) (from UniProt Q8NBS9 33-432) | binds | –
glutathione S-transferase Mu3 (GSTM3) (enzyme, UniProt P21266 1-225) MSCESSMVLGYWDIRGLAHAIRLLLEFTDTSYEEKRYTCGEAPDYDRSQWLDVKFKLDLDFPNLPYLLDGKNKITQSNAILRYIARKHNMCGETEEEKIRVDIIENQVMDFRTQLIRLCYSSDHEKLKPQYLEELPGQLKQFSMFLGKFSWFAGEKLTFVDFLTYDILDQNRIFDPKCLDEFPNLKAFMCRFEALEKIAAYLQSDQFCKMPINNKMAQWGNKPVC | binds | –
HYOU1 (protein, UniProt Q9Y4L1 33-999) LAVMSVDLGSESMKVAIVKPGVPMEIVLNKESRRKTPVIVTLKENERFFGDSAASMAIKNPKATLRYFQHLLGKQADNPHVALYQARFPEHELTFDPQRQTVHFQISSQLQFSPEEVLGMVLNYSRSLAEDFAEQPIKDAVITVPVFFNQAERRAVLQAARMAGLKVLQLINDNTATALSYGVFRRKDINTTAQNIMFYDMGSGSTVCTIVTYQMVKTKEAGMQPQLQIRGVGFDRTLGGLEMELRLRERLAGLFNEQRKGQRAKDVRENPRAMAKLLREANRLKTVLSANADHMAQIEGLMDDVDFKAKVTRVEFEELCADLFERVPGPVQQALQSAEMSLDEIEQVILVGGATRVPRVQEVLLKAVGKEELGKNINADEAAAMGAVYQAAALSKAFKVKPFVVRDAVVYPILVEFTREVEEEPGIHSLKHNKRVLFSRMGPYPQRKVITFNRYSHDFNFHINYGDLGFLGPEDLRVFGSQNLTTVKLKGVGDSFKKYPDYESKGIKAHFNLDESGVLSLDRVESVFETLVEDSAEEESTLTKLGNTISSLFGGGTTPDAKENGTDTVQEEEESPAEGSKDEPGEQVELKEEAEAPVEDGSQPPPPEPKGDATPEGEKATEKENGDKSEAQKPSEKAEAGPEGVAPAPEGEKKQKPARKRRMVEEIGVELVVLDLPDLPEDKLAQSVQKLQDLTLRDLEKQEREKAANSLEAFIFETQDKLYQPEYQEVSTEEQREEISGKLSAASTWLEDEGVGATTVMLKEKLAELRKLCQGLFFRVEERKKWPERLSALDNLLNHSSMFLKGARLIPEMDQIFTEVEMTTLEKVINETWAWKNATLAEQAKLPATEKPVLLSKDIEAKMMALDREVQYLLNKAKFTKPRPRPKDKNGTRAEPPLNASASDQGEKVIPPAGQTEDAEPISEPEKVETGSEPGDTEPLELGGPGAEPEQKEQSTGQKRPLKNDEL | no binding | no binding

Results are given in words; binding and its absence hold for the method and conditions named. In cells and extracts the contact can be indirect. A yes stands for co-enrichment or nearness to the bait. Other partners may have been found. A no says only that the protein was not detected with the bait. Tags and fused reporters may be left off the sequences shown.
